Where only a bound is given, the exact number is not on record here.

For the series, the system named is MLL-AF9 LSC. The series can be described thus: Triple coculture (LSCs and HSPCs on primary MSCs), leukemia cells. It is filed as cell-based, murine. As to conditions: for In vitro Therapeutic Index (HSPC/LSC): IC50 HSPC / IC50 LSC, triple coculture; for In vitro Therapeutic Index (Progenitors/LSC): IC50 human progenitors / IC50 murine LSC in triple coculture.

For `CCC(C)C(=O)OC1CC(C)C=C2C=CC(C)C(CCC(O)CC(O)CC(=O)O)C21` (centres unmarked) [Lovastatic acid], the “In vitro Therapeutic Index (HSPC/LSC)” value was above 8 and the “In vitro Therapeutic Index (Progenitors/LSC)” value is given as above 20.
For the compound `Nc1ccn([C@@H]2O[C@H](CO)[C@@H](O)[C@@H]2O)c(=O)n1` [Ara-C], the “In vitro Therapeutic Index (HSPC/LSC)” value is reported as below 2 and the “In vitro Therapeutic Index (Progenitors/LSC)” value is recorded as 1.
On the same counts, the results for `CC1(C)C(C(=O)Nc2ccc(S(=O)(=O)c3ccc(NC(=O)C4C(C)(C)C4(C)C)cc3)cc2)C1(C)C` [BRD7116] are above 10 and 100.
Consider `COc1cccc2c1C(=O)c1c(O)c3c(c(O)c1C2=O)C[C@@](O)(C(C)=O)C[C@@H]3O[C@H]1C[C@H](N)[C@H](O)[C@H](C)O1` [Daunorubicin], for which the “In vitro Therapeutic Index (HSPC/LSC)” value is below 20 and the “In vitro Therapeutic Index (Progenitors/LSC)” value is reported as below 8.

For the origin of these results see patent publication US20130338092A1, “COMPOUNDS AND METHODS FOR TARGETING LEUKEMIC STEM CELLS” (The Broad Institute, Inc., priority 2011, published 2013).
